Assay results taken from publication PMC5090064, “Coordinated regulation of the ESCRT-III component CHMP4C by the chromosomal passenger complex and centralspindlin during cytokinesis” (Open Biology, 2016).
Results are given in words; binding and its absence hold for the method and conditions named. For some of these results: Binding seen in cells or lysates may run through a third protein. Some entries that bind do so weakly or less than the wild type. For some of these results: Sequences can lack the tags named with a protein.

Amino acid sequences for entries named in this document (tags omitted).
UniProt Q96GD4: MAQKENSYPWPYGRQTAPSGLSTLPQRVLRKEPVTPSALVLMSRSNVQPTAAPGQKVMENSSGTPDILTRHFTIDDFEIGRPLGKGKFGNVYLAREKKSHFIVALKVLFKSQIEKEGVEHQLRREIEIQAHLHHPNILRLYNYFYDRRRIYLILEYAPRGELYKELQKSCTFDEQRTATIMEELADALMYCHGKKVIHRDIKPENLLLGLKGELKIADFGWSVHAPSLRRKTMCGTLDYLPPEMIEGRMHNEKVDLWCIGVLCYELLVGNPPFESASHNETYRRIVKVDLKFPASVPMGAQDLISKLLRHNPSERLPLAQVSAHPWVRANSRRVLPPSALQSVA

Tests used:
[1] = molecular target: T1, CHMP4C (purified recombinant, full-length) (human), Q96CF2; test: atomic force microscopy; purified proteins on mica surfaces without lipid bilayers, imaged under fluid at room temperature; both purified; details: remark: other sources report otherwise
T1 chain: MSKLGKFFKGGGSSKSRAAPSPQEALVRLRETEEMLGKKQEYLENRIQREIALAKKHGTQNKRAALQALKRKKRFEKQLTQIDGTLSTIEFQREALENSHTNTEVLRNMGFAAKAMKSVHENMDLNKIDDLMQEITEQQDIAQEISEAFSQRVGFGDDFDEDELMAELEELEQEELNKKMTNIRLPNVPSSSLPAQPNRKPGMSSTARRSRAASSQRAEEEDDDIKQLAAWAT

[2] = molecular target: T2, MKLP1::GFP (UniProt Q02241); test: co-IP; GFP-Trap magnetic beads (GFP nanobodies); extracts of HeLa cells stably expressing MKLP1::GFP transfected with Flag::CHMP4C constructs, synchronized in telophase; 4°C; western blot for Flag and GFP
T2 sequence: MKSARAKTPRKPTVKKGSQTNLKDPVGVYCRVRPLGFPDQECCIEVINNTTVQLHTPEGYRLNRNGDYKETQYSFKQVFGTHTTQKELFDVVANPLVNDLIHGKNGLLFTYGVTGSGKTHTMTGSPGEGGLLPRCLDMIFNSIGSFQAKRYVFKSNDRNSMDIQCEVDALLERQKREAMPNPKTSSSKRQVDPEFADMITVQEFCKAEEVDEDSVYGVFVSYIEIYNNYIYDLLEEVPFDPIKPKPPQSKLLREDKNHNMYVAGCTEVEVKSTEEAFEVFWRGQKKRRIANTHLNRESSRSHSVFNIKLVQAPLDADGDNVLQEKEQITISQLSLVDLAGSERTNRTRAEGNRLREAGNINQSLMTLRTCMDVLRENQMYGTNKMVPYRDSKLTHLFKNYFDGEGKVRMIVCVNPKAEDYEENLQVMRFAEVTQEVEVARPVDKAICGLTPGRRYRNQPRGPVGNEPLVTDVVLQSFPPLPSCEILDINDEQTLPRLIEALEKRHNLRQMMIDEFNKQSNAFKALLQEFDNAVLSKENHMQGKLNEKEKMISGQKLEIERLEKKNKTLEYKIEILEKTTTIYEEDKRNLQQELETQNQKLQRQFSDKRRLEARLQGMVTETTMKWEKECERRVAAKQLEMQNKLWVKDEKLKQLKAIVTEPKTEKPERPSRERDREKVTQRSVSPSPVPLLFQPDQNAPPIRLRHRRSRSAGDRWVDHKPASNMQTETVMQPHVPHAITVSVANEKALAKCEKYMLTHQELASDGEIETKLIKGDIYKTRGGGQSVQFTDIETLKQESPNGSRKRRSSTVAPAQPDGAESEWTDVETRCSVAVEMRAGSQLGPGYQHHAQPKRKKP

[3] = molecular target: T3, GST::MKLP1 central region containing the coiled coil domain (aa 437–619) (UniProt Q02241); test: pull-down; GST-tagged protein purified from E. coli on glutathione beads; in vitro translated [35S]methionine-labelled polypeptides; binding at 150 mM NaCl, washes 150 mM to 1 M NaCl; only the target purified
T3 sequence: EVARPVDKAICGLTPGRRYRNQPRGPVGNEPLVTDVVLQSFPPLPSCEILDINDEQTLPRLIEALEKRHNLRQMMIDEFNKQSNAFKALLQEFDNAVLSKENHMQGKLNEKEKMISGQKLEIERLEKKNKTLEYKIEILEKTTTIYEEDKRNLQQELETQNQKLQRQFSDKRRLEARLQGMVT

[4] = molecular target: T4, GST::MKLP1 polypeptide encompassing part of the coiled coil domain and the whole tail region (aa 590–856) (UniProt Q02241); test: as above
T4 sequence: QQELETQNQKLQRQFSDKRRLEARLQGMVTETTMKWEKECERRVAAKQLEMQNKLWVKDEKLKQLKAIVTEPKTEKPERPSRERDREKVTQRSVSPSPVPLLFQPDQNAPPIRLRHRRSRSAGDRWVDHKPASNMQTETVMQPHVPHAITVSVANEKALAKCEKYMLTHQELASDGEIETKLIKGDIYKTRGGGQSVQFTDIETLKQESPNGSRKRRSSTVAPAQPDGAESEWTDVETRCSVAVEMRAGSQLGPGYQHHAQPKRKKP

[5] = molecular target: GST-tagged Aurora B (bacterially purified) (UniProt Q96GD4); test: as above

B1: CHMP4C (purified recombinant, full-length), Q96CF2 1-233 (protein)
chain: MSKLGKFFKGGGSSKSRAAPSPQEALVRLRETEEMLGKKQEYLENRIQREIALAKKHGTQNKRAALQALKRKKRFEKQLTQIDGTLSTIEFQREALENSHTNTEVLRNMGFAAKAMKSVHENMDLNKIDDLMQEITEQQDIAQEISEAFSQRVGFGDDFDEDELMAELEELEQEELNKKMTNIRLPNVPSSSLPAQPNRKPGMSSTARRSRAASSQRAEEEDDDIKQLAAWAT
binding [1]: binds

B2: Flag::CHMP4C StripleA (S210A, S214A and S215A) (protein, UniProt Q96CF2 1-233)
chain: MSKLGKFFKGGGSSKSRAAPSPQEALVRLRETEEMLGKKQEYLENRIQREIALAKKHGTQNKRAALQALKRKKRFEKQLTQIDGTLSTIEFQREALENSHTNTEVLRNMGFAAKAMKSVHENMDLNKIDDLMQEITEQQDIAQEISEAFSQRVGFGDDFDEDELMAELEELEQEELNKKMTNIRLPNVPSSSLPAQPNRKPGMSSTARRARAAAAQRAEEEDDDIKQLAAWAT
binding [2]: binds

B3: Flag::CHMP4C WT (protein, UniProt Q96CF2 1-233)
chain: MSKLGKFFKGGGSSKSRAAPSPQEALVRLRETEEMLGKKQEYLENRIQREIALAKKHGTQNKRAALQALKRKKRFEKQLTQIDGTLSTIEFQREALENSHTNTEVLRNMGFAAKAMKSVHENMDLNKIDDLMQEITEQQDIAQEISEAFSQRVGFGDDFDEDELMAELEELEQEELNKKMTNIRLPNVPSSSLPAQPNRKPGMSSTARRSRAASSQRAEEEDDDIKQLAAWAT
binding [2]: binds

B4: Flag::CHMP4C S210A (protein, UniProt Q96CF2 1-233)
chain: MSKLGKFFKGGGSSKSRAAPSPQEALVRLRETEEMLGKKQEYLENRIQREIALAKKHGTQNKRAALQALKRKKRFEKQLTQIDGTLSTIEFQREALENSHTNTEVLRNMGFAAKAMKSVHENMDLNKIDDLMQEITEQQDIAQEISEAFSQRVGFGDDFDEDELMAELEELEQEELNKKMTNIRLPNVPSSSLPAQPNRKPGMSSTARRARAASSQRAEEEDDDIKQLAAWAT
binding [2]: binds

B5: CHMP4C N-terminal basic half (aa 1–121), in vitro translated (domain or fragment, UniProt Q96CF2 1-121)
chain: MSKLGKFFKGGGSSKSRAAPSPQEALVRLRETEEMLGKKQEYLENRIQREIALAKKHGTQNKRAALQALKRKKRFEKQLTQIDGTLSTIEFQREALENSHTNTEVLRNMGFAAKAMKSVHE
modifications: [35S]methionine label
binding [3]: binds | binding [4]: binds

B6: in vitro translated CHMP4C (protein, UniProt Q96CF2 1-233)
chain: MSKLGKFFKGGGSSKSRAAPSPQEALVRLRETEEMLGKKQEYLENRIQREIALAKKHGTQNKRAALQALKRKKRFEKQLTQIDGTLSTIEFQREALENSHTNTEVLRNMGFAAKAMKSVHENMDLNKIDDLMQEITEQQDIAQEISEAFSQRVGFGDDFDEDELMAELEELEQEELNKKMTNIRLPNVPSSSLPAQPNRKPGMSSTARRSRAASSQRAEEEDDDIKQLAAWAT
binding [5]: binds
